Results: paper PMC11053683, “Tuning of the Anti-Breast Cancer Activity of Betulinic Acid via Its Conversion to Ionic Liquids” (Pharmaceutics, 2024)

Test system: MCF-7 cells
Assay: DSC of treated MCF-7 cells (thermodynamic behavior)
Type: cell-based, human
Details: MCF-7 treated 72 h at IC50 concentration

SMILES | downshift of main LT transition (T1) compared to the control | downshift of shoulder Sh1 with respect to the control cells
C=C(C)[C@@H]1CC[C@]2(C(=O)O)CC[C@]3(C)[C@H](CC[C@@H]4[C@@]5(C)CC[C@H](O)C(C)(C)[C@@H]5CC[C@]43C)[C@@H]12 [BA, Betulinic acid] | more than 1 °C | 6 °C
C=C(C)C1CCC2(C(=O)O)CCC3(C)C(CCC4C5(C)CCC(O)C(C)(C)C5CCC43C)C12.C=C(C)C1CCC2(C(=O)O)CCC3(C)C(CCC4C5(C)CCC(O)C(C)(C)C5CCC43C)C12.CCOC(=O)C(N)CCCCN (stereo not drawn) [[LysOEt][BA]2] |  | 6 °C
